# About 5,500 (1.4%) of roughly 400,000 compounds were called active. The shares of active, inactive and inconclusive entries below differ from those in the screen. Calls come from the whole dose curve; as a rule, active = well fitted cell-killing curve with a large enough effect; inconclusive = small, poorly fitted or top-dose-only effect, or effect the other way; inactive = flat fitted curve, though single readings scatter. Potencies of inconclusive entries are doubtful fits and often do not repeat.
# Experiment: qHTS assay for MDR1-selective chemotherapeutics: Primary screen using the parental adenocarcinoma cell KB-3-1; note: nearly all actives have a fitted effect of over 60% in size
# Settings: KB-3-1 viability, CellTiter-Glo ATP luminescence, 72 h; activity change, negative = cytotoxic: at 46.1 µM (top of the series)
# How it was run: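 72 h, 37 °C compound treatment of KB-3-1 parental cells; CellTiter-Glo added, 10 min, luminescence read. Data corrected against DMSO-only plates and normalized before curve fitting.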
# % is set by controls: 0 for no effect and ±100 for the full control effect; potency is the fitted concentration of half-maximal effect.
SMILES,Potency,"activity change, negative = cytotoxic"
O=C(NCC1CCN(C(=O)c2c(F)c(F)c(F)c(F)c2F)CC1)c1c(F)c(F)c(F)c(F)c1F,"inconclusive: 23.1 µM [cytotoxic, single point]",
NC(=O)Cn1c(=O)n(Cc2ccccc2)c(=O)c2cccnc21,inactive,
COC(=O)c1c(NC(=O)c2ccc(OC)cc2OC)sc2c1CCCCC2,"inconclusive: 23.1 µM [rising, single point]",
Nc1nc2ccc(Cl)cc2cc1C(=O)NCCc1ccc(Cl)cc1Cl,inactive,
COc1cc(-c2nc3ccc(C)cn3c2NCc2ccccc2)ccc1-c1cccc(Cl)c1,inactive,
Nc1ncncc1-c1ccccc1Cl,inactive,
CSc1nc2nc3c(cc2c(=O)n1-c1ccccc1C)CCCC3,"inconclusive: 16.4 µM [cytotoxic, partial curve]",
O=[N+]([O-])c1cccn2cc(-c3ccc(Br)cc3)nc12,"inconclusive: 18.4 µM [cytotoxic, single point]",
C=CCOc1c(Br)cc(/C=N/n2c(CC)n[nH]c2=S)cc1Br,"inconclusive: 16.4 µM [cytotoxic, partial curve, poor fit]",
CCSc1ccc(-c2cc(NC=O)c3ncc(-c4cc(OC)c(OC)c(OC)c4)n3c2)cc1,"inconclusive: 29.1 µM [cytotoxic, single point]",
Cc1cc2c(=O)n(CC(=O)NCC(=O)Nc3ccc(C(C)C)cc3)cnc2s1,"inconclusive: 6.51 µM [rising, partial curve]",
CSc1ccc(CN(C)CC(=O)NC(=O)NCCC2=CCCCC2)cc1,inactive,
CCN(CC)S(=O)(=O)c1cc([N+](=O)[O-])ccc1NNC(=O)Nc1ccc(F)cc1,"inconclusive: 35.5 µM [cytotoxic, single point]",
C[C@@H](c1ccccc1)N1C[C@@H](COCc2ccccc2)Oc2cc(N3CC[C@@H](N(C)C)C3)ccc2S1(=O)=O,"inconclusive: 16.4 µM [cytotoxic, single point]",
N#C/C(=C\c1ccc(/C=C(/C#N)c2nn(CCO)c(N)c2C#N)cc1)c1nn(CCO)c(N)c1C#N,"inconclusive: 20.6 µM [rising, single point]",
O=C(N/N=C/c1ccc([N+](=O)[O-])o1)c1sc2ccccc2c1Cl,"inconclusive: 16.4 µM [cytotoxic, single point]",
Cc1ccc(S(=O)(=O)NCC(c2ccco2)N2CCOCC2)cc1 (centres undefined),inactive,
O=C(NC1CC1)c1c(O)c2ccccc2[nH]c1=O,"inconclusive: 29.1 µM [cytotoxic, single point]",
COc1cccc(/C=C/C(=O)c2c(O)cc(C)oc2=O)c1O,"inconclusive: 16.4 µM [cytotoxic, single point]",
CC(C1CC1)N(Cc1ccccc1)C(=S)Nc1cccc(C(F)(F)F)c1 (centres undefined),inactive,
N#Cc1ccc(C23CC4(C2)[C@H](CN(Cc2cccnc2)[C@@H]4c2ccccc2)C3c2ccccc2)cc1 (some centres undefined),"inconclusive: 16.4 µM [cytotoxic, partial curve, poor fit]",
CCOc1cc(CN2CCCC(N3CCN(c4ccc(F)cc4)CC3)C2)ccc1OC (centres undefined),inactive,
CC(C)(C)OC(=O)N1CCC(NC(=O)c2[nH]cnc2C(=O)Nc2ccc(Br)cc2F)CC1,"inconclusive: 29.1 µM [cytotoxic, single point]",
CCc1nnc(NC(=O)c2cc(=O)c3cc(C)ccc3o2)s1,"inconclusive: 16.4 µM [rising, partial curve]",
COC(=O)C1=NN(C(=O)c2ccc(C)cc2)C(O)(c2ccc(Cl)cc2)C1 (centres undefined),inactive,

# Reformatted: 20 of the compounds above.
SMILES	Potency	activity change, negative = cytotoxic
NC(=O)Cn1c(=O)n(Cc2ccccc2)c(=O)c2cccnc21	inactive	
COC(=O)c1c(NC(=O)c2ccc(OC)cc2OC)sc2c1CCCCC2	inconclusive: 23.1 µM [rising, single point]	
Nc1nc2ccc(Cl)cc2cc1C(=O)NCCc1ccc(Cl)cc1Cl	inactive	
COc1cc(-c2nc3ccc(C)cn3c2NCc2ccccc2)ccc1-c1cccc(Cl)c1	inactive	
Nc1ncncc1-c1ccccc1Cl	inactive	
CSc1nc2nc3c(cc2c(=O)n1-c1ccccc1C)CCCC3	inconclusive: 16.4 µM [cytotoxic, partial curve]	
O=[N+]([O-])c1cccn2cc(-c3ccc(Br)cc3)nc12	inconclusive: 18.4 µM [cytotoxic, single point]	
C=CCOc1c(Br)cc(/C=N/n2c(CC)n[nH]c2=S)cc1Br	inconclusive: 16.4 µM [cytotoxic, partial curve, poor fit]	
CCSc1ccc(-c2cc(NC=O)c3ncc(-c4cc(OC)c(OC)c(OC)c4)n3c2)cc1	inconclusive: 29.1 µM [cytotoxic, single point]	
Cc1cc2c(=O)n(CC(=O)NCC(=O)Nc3ccc(C(C)C)cc3)cnc2s1	inconclusive: 6.51 µM [rising, partial curve]	
CSc1ccc(CN(C)CC(=O)NC(=O)NCCC2=CCCCC2)cc1	inactive	
CCN(CC)S(=O)(=O)c1cc([N+](=O)[O-])ccc1NNC(=O)Nc1ccc(F)cc1	inconclusive: 35.5 µM [cytotoxic, single point]	
C[C@@H](c1ccccc1)N1C[C@@H](COCc2ccccc2)Oc2cc(N3CC[C@@H](N(C)C)C3)ccc2S1(=O)=O	inconclusive: 16.4 µM [cytotoxic, single point]	
N#C/C(=C\c1ccc(/C=C(/C#N)c2nn(CCO)c(N)c2C#N)cc1)c1nn(CCO)c(N)c1C#N	inconclusive: 20.6 µM [rising, single point]	
O=C(N/N=C/c1ccc([N+](=O)[O-])o1)c1sc2ccccc2c1Cl	inconclusive: 16.4 µM [cytotoxic, single point]	
Cc1ccc(S(=O)(=O)NCC(c2ccco2)N2CCOCC2)cc1 (centres undefined)	inactive	
O=C(NC1CC1)c1c(O)c2ccccc2[nH]c1=O	inconclusive: 29.1 µM [cytotoxic, single point]	
COc1cccc(/C=C/C(=O)c2c(O)cc(C)oc2=O)c1O	inconclusive: 16.4 µM [cytotoxic, single point]	
CC(C1CC1)N(Cc1ccccc1)C(=S)Nc1cccc(C(F)(F)F)c1 (centres undefined)	inactive	
N#Cc1ccc(C23CC4(C2)[C@H](CN(Cc2cccnc2)[C@@H]4c2ccccc2)C3c2ccccc2)cc1 (some centres undefined)	inconclusive: 16.4 µM [cytotoxic, partial curve, poor fit]	

# (further entries)

SMILES,Potency,"activity change, negative = cytotoxic"
CCCSc1nsc(N)n1,"inconclusive: 29.1 µM [cytotoxic, single point]",
CCCS(=O)(=O)NC(=O)C1(C)CCN(C(=O)c2cc(OC)c(OC)c(OC)c2)C1 (centres undefined),inactive,
Cc1cc(Cl)ccc1OCC(=O)N[C@@H](Cc1ccccc1)c1nc2ccccc2[nH]1,"inconclusive: 29.1 µM [cytotoxic, single point]",
Cn1c2ccccc2c(=O)c2ccc(C#CC3(O)CCCCC3)cc21,"inconclusive: 29.1 µM [cytotoxic, single point]",
O=C(Cc1ccc(-n2cccc2)cc1)NCc1ccccc1Cl,"inconclusive: 5.8 µM [cytotoxic, full curve, poor fit]",
S=C(NCc1ccco1)N1CCN(Cc2ccc(Cl)cc2Cl)CC1,"inconclusive: 29.1 µM [cytotoxic, partial curve, poor fit]",
CCOC(=O)c1cn2nc(Oc3ccccc3)ccc2n1,"inconclusive: 29.1 µM [rising, single point]",
Cc1cc(C(=O)N/N=C/c2ccc([N+](=O)[O-])cc2)c2ccccc2n1,active: 5.8 µM,
O=C(NCc1ccccc1)C1CCN(S(=O)(=O)Cc2ccccc2)CC1,inactive,
Cc1ccc2ccc(C(Nc3ccccc3)c3ccccc3)c(O)c2n1 (centres undefined),active: 4.11 µM,
Cc1ccc(NC(=O)COC(=O)c2nn(-c3ccc(Cl)cc3)cc2O)cc1,inactive,
Brc1ccc(-c2nc(-c3ccccn3)no2)o1,"inconclusive: 18.4 µM [cytotoxic, single point]",
COc1ccc(OC)c(-c2nnc3n2N=C(c2ccc(OC)c(OC4CCOC4)c2)CS3)c1 (centres undefined),active: 0.116 µM,
CC(=O)NCCNC(=O)CCCn1c(=O)[nH]c2ccsc2c1=O,inactive,
CCOC(=O)c1ccc(NC(=O)COc2ccc(CNCCO)cc2OCC)cc1,inactive,
CCc1ccccc1NC(=O)CC1S/C(=N\c2nccs2)N(CC)C1=O (centres undefined),inactive,
O=C(NNC(=O)c1cnccn1)c1ccc(Cl)c(Cl)c1,"inconclusive: 25.9 µM [cytotoxic, single point]",
CCCN(CC(=O)Nc1cccc(Br)c1)CC(=O)Nc1ccc(F)c(F)c1F,"inconclusive: 29.1 µM [cytotoxic, single point]",
O=c1[nH]c(=O)n(CCc2ccc(F)cc2)c(O)c1C=NCc1ccc2c(c1)OCO2,inactive,
Cc1ccc2c(c1)N(C(=O)CSc1nncn1C)C(C)(C)c1ssc(=S)c1-2,"inconclusive: 18.4 µM [cytotoxic, single point]",
Cc1cc(C)c2c(N)c(C(=O)Nc3ccc(F)cc3)sc2n1,,inconclusive: -32.3% [cytotoxic]
COc1ccc(C(=O)NN(C)c2nc(C(F)(F)F)nc3ccccc23)cc1,active: 0.82 µM,
COc1cccc(C(=O)CC(=O)C(=O)Nc2cccc([N+](=O)[O-])c2C)c1,inactive,
CCOC(=O)c1c(NC(=O)Cc2coc3cc(C)cc(C)c23)sc2c1CCC2,inactive,
COc1ccc(-c2nnn(CC(=O)N(C3CCCC3)C(C)C(=O)NC3CCCC3)n2)cc1OC (centres undefined),inactive,

SMILES,Potency,"activity change, negative = cytotoxic"
CC(=O)Nc1ccc(-c2cc(NC(C)=O)n(-c3ccccc3)n2)cc1,inactive,
CN(C)c1ncnc2c1ncn2C1OC(CO)C(O)C1O (centres undefined),active: 8.2 µM,
COc1cccc(CNc2nc3cc(-c4ccc(C)cc4)sc3c(=O)n2C)c1OC,"inconclusive: 6.51 µM [cytotoxic, partial curve]",
N#Cc1c(SCc2ccccc2)sc(C(=O)c2ccccc2)c1N,inactive,
Cc1ccc(S(=O)(=O)N2CCC(N3CCN(Cc4ccccc4)C(=O)C3=O)CC2)cc1C,inactive,
COc1ccc(C(=O)Nc2ccc(C(=O)c3ccccc3)cc2)cc1,inactive,
Cc1cccc(-n2c(C)cc(C(=O)C(=O)Nc3ccccc3F)c2C)c1C,inactive,
CCN1C(=O)C(CC(=O)Nc2ccc(F)cc2)N(Cc2ccc3c(c2)OCO3)C1=S (centres undefined),"inconclusive: 29.1 µM [cytotoxic, single point]",
COC(=O)c1c(NC(=O)COC(=O)c2ccc(C)s2)sc2c1CCCCC2,inactive,
Cc1nc2cc(Nc3nnc(-c4ccccc4)c4ccccc34)ccc2n1C,"inconclusive: 29.1 µM [rising, partial curve, poor fit]",
COc1ccc(OC)c(NC(=O)c2oc(=O)c3ccccc3c2-c2ccccc2)c1,"inconclusive: 0.58 µM [cytotoxic, full curve]",
CC(OC(=O)c1ccc([N+](=O)[O-])s1)C(=O)NC1CCCCC1C (centres undefined),inactive,
CCOC(=O)CCCNC(=O)CN1C(=O)NC2(CCCCCC2)C1=O,inactive,
Cc1ccc(CNC(=O)Cc2ccc(-n3c(=O)[nH]c4ccsc4c3=O)cc2)cc1,active: 1.3 µM,
COc1cc2c(cc1OC)C(c1cccc(Cl)c1)CC(=O)N2 (centres undefined),inactive,
O=C(O)CC1Cc2ccccc2C1C(=O)O (centres undefined),inactive,
COc1cc2ccccc2cc1C(=O)N/N=C/c1ccc2c(c1)OCO2,"inconclusive: 29.1 µM [cytotoxic, single point]",
O=C(N/C(=C/c1ccccc1Cl)C(=O)N1CCOCC1)c1ccccc1,inactive,
CCCNC(=O)c1cc2c(c(-c3cccc(-c4ccccc4F)c3)n1)[C@@H](CCO)N(C(=O)CC1CC1)C2,"inconclusive: 29.1 µM [cytotoxic, single point]",
Cn1c2ccccc2c2cc(/C=N/NC(=O)c3ccc(O)cc3O)ccc21,"inconclusive: 18.4 µM [cytotoxic, single point]",
O=c1[nH]nnc2c1ncn2C1OC(CO)C(O)C1O (centres undefined),"inconclusive: 14.6 µM [cytotoxic, partial curve]",
COc1cc(-c2nn3c(-c4cc(-c5ccccc5)n[nH]4)nnc3s2)cc(OC)c1OC,"inconclusive: 29.1 µM [cytotoxic, single point]",
CC(=O)c1c(C)[nH]c(C(=O)Nc2cccc(S(=O)(=O)N3CCCCC3)c2)c1C,"inconclusive: 29.1 µM [cytotoxic, single point]",
CCOc1[nH]n(-c2ccc(Cl)cc2)c(=O)c1C=Nc1ccc(OC)cc1,,inconclusive: 33.8%
